{"source": "patent US20260215432A1", "about": "“ANTIMICROBIAL CONJUGATED OLIGOELECTROLYTES AND METHODS THEREOF” (National University of Singapore, priority 2023, published 2026)", "key": {"[1]": {"system": "A. baumanii (ATCC 17978)", "assay": "MIC, broth microdilution in CA-MHB", "format": "cell-based", "method": "(§1) Antimicrobial activity was screened against a range of pathogens made up of clinically relevant ESKAPE pathogens by determination of the minimum inhibitory concentration (MIC) in cation-adjusted Mueller-Hinton broth (CA-MHB).\n(§2) Minimum inhibitory concentrations of COEs were determined through a broth microdilution method in accordance with the Clinical and Laboratory Standards Institute (CLSI) guidelines M07-A10. A single bacterial colony was isolated from an overnight culture and grown to mid-log phase (OD600~0.8). Compounds were prepared as a stock solution in DMSO and diluted in a sterile flat-bottom 96-well plate in CA-MHB. Subsequent concentrations were prepared by two-fold dilution of the initial solution. An equivalent volume of bacteria was added to the compound to a final concentration of 5×10^5 cfu/mL. Plates were incubated at 37° C. for 16-18 hours, and read at OD600 using a microplate reader (TECAN Spark®). […] MIC values were determined for each compound in triplicate."}, "[2]": {"system": "E. coli. K12 (ATCC 10798)", "assay": "MIC, broth microdilution in CA-MHB", "format": "cell-based", "method": "as §1, §2"}, "[3]": {"system": "E. facium (ATCC 19434)", "assay": "MIC, broth microdilution in CA-MHB", "format": "cell-based", "method": "as §1, §2"}, "[4]": {"system": "E. faecalis OG1RF (ATCC 47077)", "assay": "MIC, broth microdilution in CA-MHB", "format": "cell-based", "method": "as §1, §2"}, "[5]": {"system": "K. pneumoniae (carbapenem-resistant Enterobacterales) (ATCC BAA1705)", "assay": "MIC, broth microdilution in CA-MHB", "format": "cell-based", "method": "as §1, §2"}, "[6]": {"system": "Methicillin-resistant S. aureus (ATCC BAA1717)", "assay": "MIC, broth microdilution in CA-MHB", "format": "cell-based", "method": "as §1, §2"}, "[7]": {"system": "P. aeruginosa (ATCC47085)", "assay": "MIC, broth microdilution in CA-MHB", "format": "cell-based", "method": "as §1, §2"}, "[8]": {"system": "S. aureus (ATCC 29213)", "assay": "MIC, broth microdilution in CA-MHB", "format": "cell-based", "method": "as §1, §2"}, "[9]": {"system": "M. abscesses (ATCC 19977)", "assay": "MIC against mycobacterium in Middlebrook 7H9 broth", "format": "cell-based, M. abscessus", "method": "We also examined non-tuberculous mycobacteria (NTM). These are opportunistic pathogens that are rising in clinical significance due to their increasing prevalence and treatment difficulty. The membrane of Mycobacterium is inherently a greater antibiotic permeability barrier due to its high lipid content relative to other pathogens and long-tailed mycolic acids that contributed to its high lipophilic character. The antimicrobial activity of the TPP analogues were also evaluated against Mycobacterium in Middlebrook 7H9 broth."}, "[10]": {"system": "A549 (lung epithelial cells)", "assay": "Cytotoxicity against mammalian cell line", "format": "cell-based", "method": "The cytotoxicity of the TPP COEs was also tested against a mammalian cell line (A549)."}}}
{"smiles": "C(=C\\c1ccc(OCCCCCCCC[P+](c2ccccc2)(c2ccccc2)c2ccccc2)cc1)/c1ccc(OCCCCCCCC[P+](c2ccccc2)(c2ccccc2)c2ccccc2)cc1.[I-].[I-]", "note": "[Compound D8P]", "values": [{"measurement": "MIC AB", "setting": "[1]", "result": ">4", "unit": "µg/mL"}, {"measurement": "MIC EC", "setting": "[2]", "result": ">4", "unit": "µg/mL"}, {"measurement": "MIC FAC", "setting": "[3]", "result": 2, "unit": "µg/mL"}, {"measurement": "MIC FAE", "setting": "[4]", "result": 2, "unit": "µg/mL"}, {"measurement": "MIC KP", "setting": "[5]", "result": ">4", "unit": "µg/mL"}, {"measurement": "MIC MRSA", "setting": "[6]", "result": ">4", "unit": "µg/mL"}, {"measurement": "MIC PA", "setting": "[7]", "result": ">4", "unit": "µg/mL"}, {"measurement": "MIC SA", "setting": "[8]", "result": ">4", "unit": "µg/mL"}, {"measurement": "MIC M. abscesses", "setting": "[9]", "result": 128, "unit": "µg/mL"}, {"measurement": "IC50", "setting": "[10]", "result": 7, "unit": "µg/mL"}]}
